# In article PMC7819943, “Rice protein-binding microarrays: a tool to detect cis-acting elements near promoter regions in rice”:
# By UniProt entry, the sequences of proteins in these tests, tags left out.
# UniProt Q0JBA9, entry or part of it: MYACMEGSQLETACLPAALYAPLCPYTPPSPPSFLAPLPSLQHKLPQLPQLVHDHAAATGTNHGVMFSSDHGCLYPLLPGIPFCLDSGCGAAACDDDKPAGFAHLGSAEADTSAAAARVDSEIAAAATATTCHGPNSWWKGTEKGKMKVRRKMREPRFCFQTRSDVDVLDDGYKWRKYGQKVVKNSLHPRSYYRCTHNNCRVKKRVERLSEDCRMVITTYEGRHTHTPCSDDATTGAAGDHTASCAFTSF
# This is one part of the list.
# Molecular target: OsWRKY34 (Oryza sativa, UniProt Q0JBA9 1-250)
# Test: protein-binding microarray (RPBM); PBS, 2% BSA, 51.3 ng/ul salmon testes DNA, 50 uM zinc acetate, 200 nM TF, 25 C, 1 h; high values mean tight binding
# Details: protein: recombinant; tags: N-terminal polyhistidine and DsRed monomer fusion (pET32a); label: CyDye5-dUTP incorporated in the synthesized complementary strand; 3' TTTTT single-stranded linker to array surface; dsDNA, one strand shown
# Procedure, shortened: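 Binding signal here means per-feature fluorescence intensity in arbitrary units. The values were read on an Axon 4000B scanner after a custom Agilent array, double-stranded by primer extension with Cy5-dUTP, was incubated with 200 nM protein at 25 °C for 1 h in PBS with 2% BSA, salmon testes DNA and 50 µM zinc acetate, then washed. The proteins were transcription factors with an N-terminal polyhistidine tag and DsRed, expressed in E. coli BL21-CodonPlus and purified on Ni–NTA.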
row,Sequence,binding signal
1,CGGCTTTCCCCACTGGTTCTACAGGCATCCGCGCGGATTCCGGAGTCACCTAGTGCAG,8710 fluorescence intensity (a.u.)
2,ACCCACCCCTGCTAGGTCCGCCTCCGCCGCCGGCCACCGCCGGAGTCACCTAGTGCAG,11400 fluorescence intensity (a.u.)
3,CTCCTTTATCTAACCAAATCTCAGCCATCTGTTTTTATTACGGAGTCACCTAGTGCAG,8500 fluorescence intensity (a.u.)
4,CCTCGCATCGCATCCCCACCTCCGCCGATCCCGCCGTCTCCGGAGTCACCTAGTGCAG,8520 fluorescence intensity (a.u.)
5,ACTCATGAATCATGATATCCTTGCCGTCTCAAAATCCTGTCGGAGTCACCTAGTGCAG,9300 fluorescence intensity (a.u.)
6,ACGTATTTTAGTGTTTGCCAATTTCTTTTCGAATTTTAATCGGAGTCACCTAGTGCAG,13700 fluorescence intensity (a.u.)
7,GCTAGCTTCGTTCGTCCGTGAGCCGCACGATCCACATCCACGGAGTCACCTAGTGCAG,10100 fluorescence intensity (a.u.)
8,CTCGACTGTTACCTCGATATCTCACACAAAACACACTCAACGGAGTCACCTAGTGCAG,9460 fluorescence intensity (a.u.)
9,TAACCTGGCGCCAATGGCGAACGCACCGCACCGCGAGACACGGAGTCACCTAGTGCAG,8360 fluorescence intensity (a.u.)
10,ACGCCGTTGATTTTTTTAAACATATTTGACCGTTCGTCTTCGGAGTCACCTAGTGCAG,11400 fluorescence intensity (a.u.)
11,GGGATCGGCCTCCGAGGGCTCCGACGCGTCGGTAGCGGCGCGGAGTCACCTAGTGCAG,8130 fluorescence intensity (a.u.)
12,ATCTTTTGGCCGTACTTTTTTTCATCTGGGTCCCTTGCCGCGGAGTCACCTAGTGCAG,8680 fluorescence intensity (a.u.)
13,GTCAGCTCACGTGGACCCACAATCGCATGTCCCAATCAAACGGAGTCACCTAGTGCAG,8140 fluorescence intensity (a.u.)
14,AATTAGTTCCAATATCCTTGCTGGTGTGATTCACCTCATACGGAGTCACCTAGTGCAG,8400 fluorescence intensity (a.u.)
15,GATGGCTTCGATTTGCTGTGTTACTTCTTTTTTCTAGTTTCGGAGTCACCTAGTGCAG,16900 fluorescence intensity (a.u.)
16,GGTTTCTGTGTCCAACGTTTGACCATCCGTCTTATTTGAACGGAGTCACCTAGTGCAG,8040 fluorescence intensity (a.u.)
17,GAATGTTATGTAATTGGGTCGGATTGGTATGCATATTGAGCGGAGTCACCTAGTGCAG,8740 fluorescence intensity (a.u.)
18,GGAAGACCAACCCCACGGCCATTTCTCCACGCAACCAAACCGGAGTCACCTAGTGCAG,8830 fluorescence intensity (a.u.)
19,GCAAGGTGTACCCGCAGTTCTCACGGTTACCACCATTTTCCGGAGTCACCTAGTGCAG,8430 fluorescence intensity (a.u.)
20,GGGGTTTGTTGTATTGAATGAATGAACTTCCAGCTTTGCCCGGAGTCACCTAGTGCAG,8300 fluorescence intensity (a.u.)
21,GATGGCGTGGTGGGTATAGTTCTCCTCCCGTCGTCGACGCCGGAGTCACCTAGTGCAG,9360 fluorescence intensity (a.u.)
22,GCTGAACATCAAATTCCATTATTATAGCATCCATGTCCATCGGAGTCACCTAGTGCAG,8500 fluorescence intensity (a.u.)
23,ATTGGAGCTGTGTTGACCCAAAATGGACACCCAATTGCCTCGGAGTCACCTAGTGCAG,8920 fluorescence intensity (a.u.)
24,TTGCTGTCTATGTGAATTTCCCTCTGCTGTTGCTGTTTATCGGAGTCACCTAGTGCAG,9520 fluorescence intensity (a.u.)
25,CCCCACCCAGCGTCTCTTCTCTTCTCTTCTTTTTTATTGCCGGAGTCACCTAGTGCAG,8640 fluorescence intensity (a.u.)
26,AATTGTATTTCTATATGGACTCTATACTCTACTTCTAATACGGAGTCACCTAGTGCAG,8450 fluorescence intensity (a.u.)
27,CAATCTTGGGTGGCAACTGATTTGGCTGGTTCTTTTTGTTCGGAGTCACCTAGTGCAG,9160 fluorescence intensity (a.u.)

# Rewritten tab-delimited: part of the list above
row	Sequence	binding signal
18	GGAAGACCAACCCCACGGCCATTTCTCCACGCAACCAAACCGGAGTCACCTAGTGCAG	8830 fluorescence intensity (a.u.)
19	GCAAGGTGTACCCGCAGTTCTCACGGTTACCACCATTTTCCGGAGTCACCTAGTGCAG	8430 fluorescence intensity (a.u.)
20	GGGGTTTGTTGTATTGAATGAATGAACTTCCAGCTTTGCCCGGAGTCACCTAGTGCAG	8300 fluorescence intensity (a.u.)
21	GATGGCGTGGTGGGTATAGTTCTCCTCCCGTCGTCGACGCCGGAGTCACCTAGTGCAG	9360 fluorescence intensity (a.u.)

# (next part)

row,Sequence,binding signal
1,AATACAATAGTTTTTCTGCACCATGCCTGATCACATATTCCGGAGTCACCTAGTGCAG,8040 fluorescence intensity (a.u.)
2,TCTGTCCCTCAATCCCGCGACGCCGCCGCCGTTCTGCTCCCGGAGTCACCTAGTGCAG,10000 fluorescence intensity (a.u.)
3,TTACCCGTGCGGCTCCTCGTGTCGGACCCCATGACCGGCGCGGAGTCACCTAGTGCAG,8990 fluorescence intensity (a.u.)
4,TTTGCGGGTGGAGTTTTTTAAGTTTTTGGATTTCCTGTTTCGGAGTCACCTAGTGCAG,11700 fluorescence intensity (a.u.)
5,GCTCCAGATCATCGTGCACAGCCAGCACCACCACGGCCGGCGGAGTCACCTAGTGCAG,8500 fluorescence intensity (a.u.)
6,ATGTGGTAGTTCCTGTAAAGATTTAGTCAACGTATGTGGTCGGAGTCACCTAGTGCAG,11000 fluorescence intensity (a.u.)
7,AAAGCACCTCTACCTACAGTCTTCGCGTGTACTCTTATACCGGAGTCACCTAGTGCAG,12700 fluorescence intensity (a.u.)
8,CATGTGAGAAAAGTCAACGGCGTCATCTATTAAAAAACGGCGGAGTCACCTAGTGCAG,9950 fluorescence intensity (a.u.)
9,GGATGTTGAAAACCGGTAGACCGGCGCGGGGTGGGAGTCGCGGAGTCACCTAGTGCAG,10000 fluorescence intensity (a.u.)
10,GCACCACATCGCTTCCGGCCGTGCCAGTCACGCCCGTGCTCGGAGTCACCTAGTGCAG,9200 fluorescence intensity (a.u.)
11,GCTGGGCTCCATCTTTCGTTTTTTGGGCCGTCCATCATGTCGGAGTCACCTAGTGCAG,9100 fluorescence intensity (a.u.)
12,AACATTTTACACTTTCCTTGAGTTTTAGAAGGATTTACCTCGGAGTCACCTAGTGCAG,9440 fluorescence intensity (a.u.)
13,AGCAAGCTACATGGTTAGTCACCTCTACCAATTGAATTTCCGGAGTCACCTAGTGCAG,8800 fluorescence intensity (a.u.)
14,TGGGGTGGAGGGGCGAGCAACGGGCGTAGCAAGCCGAAGACGGAGTCACCTAGTGCAG,9660 fluorescence intensity (a.u.)
15,ATTTTAGCCTCTATTTCCCTTCTTTTCTTACTTTTTTTTACGGAGTCACCTAGTGCAG,10600 fluorescence intensity (a.u.)
16,GCATCGTCCTGTGAGTTTCTCTCTGCACCTCCTCTCCTCACGGAGTCACCTAGTGCAG,10200 fluorescence intensity (a.u.)
17,ACTACTCGTCTACTTGCCTACGGGAGGAAGCAATAATCAACGGAGTCACCTAGTGCAG,8180 fluorescence intensity (a.u.)
18,CTACATCTTCTCTCGCTATCTCTCTCTGTACTCTCTCTCTCGGAGTCACCTAGTGCAG,11400 fluorescence intensity (a.u.)
19,CGTCCTTATATAATTGTTTTACTTGGTGATTTCATCTGGTCGGAGTCACCTAGTGCAG,64500 fluorescence intensity (a.u.)
20,TTTTCCTGTTTCTGTGGCTATGTCCCGTTTGGTTACGTTCCGGAGTCACCTAGTGCAG,14200 fluorescence intensity (a.u.)
21,ACTTGTTGCTTATCTTCACACACGATCAGATGAAGATTCTCGGAGTCACCTAGTGCAG,10800 fluorescence intensity (a.u.)
22,AGGATTCAATTTGGACTTTGGTGGAGGGGAGGGGCTGCTGCGGAGTCACCTAGTGCAG,22100 fluorescence intensity (a.u.)
23,AGCCGTCTCAGCCCCGGCGCCGTCATCTTCCGTCTTAGCCCGGAGTCACCTAGTGCAG,8220 fluorescence intensity (a.u.)
24,CGACAAATTTTTACCAATACTAATCGTTTTTTTTTTCTCGCGGAGTCACCTAGTGCAG,8160 fluorescence intensity (a.u.)
25,AATCTCTCTCTCGATCCGACTCTGCTCTCTATCCGGCCTCCGGAGTCACCTAGTGCAG,9950 fluorescence intensity (a.u.)
26,CGAATATATTTCTGGATTGTGGTTGGTTCTTTTGCTACTGCGGAGTCACCTAGTGCAG,8380 fluorescence intensity (a.u.)
27,AGTTTGCAATCGCGTCACGTATCCACTCTGAATTCATGTCCGGAGTCACCTAGTGCAG,9200 fluorescence intensity (a.u.)
